Reference: patent publication US20230106247A1
These are yes or no findings as the source states them, for the method shown. Some results given as binding are weak or reduced against the parent protein; the word gives no strength. One block for each binder: values may come before it.

The chains behind the UniProt entries cited, without tags or fusion partners. Where a name states a change or a piece, a line headed by the entry shows the natural chain unless it says otherwise. A line that says so, or that is headed by a name, gives the form on record, which may keep a tag or linker.
human Sirpα-V1-his (P78324, form named): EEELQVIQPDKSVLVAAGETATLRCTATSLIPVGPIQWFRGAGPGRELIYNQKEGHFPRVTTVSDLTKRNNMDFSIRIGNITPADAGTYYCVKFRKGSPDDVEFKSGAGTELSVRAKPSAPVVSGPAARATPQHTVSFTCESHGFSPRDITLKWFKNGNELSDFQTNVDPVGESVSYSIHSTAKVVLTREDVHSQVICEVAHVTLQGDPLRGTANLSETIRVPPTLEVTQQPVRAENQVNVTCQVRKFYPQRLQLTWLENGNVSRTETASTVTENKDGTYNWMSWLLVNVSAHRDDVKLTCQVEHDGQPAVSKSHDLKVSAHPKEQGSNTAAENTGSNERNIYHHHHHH

Assays:
[1] = target: human Sirpα-V1-his (human) (UniProt P78324); test: ELISA, supernatant
[2] = target: Cyno Sirpα L938 (cynomolgus); test: ELISA
[3] = target: Cyno Sirpα L939 (cynomolgus); test: ELISA

binding [1]: binds
B1: hybridoma subclone 14H6E5B5C8G2 (supernatant antibody; murine mab14) (antibody, V domains shown)
VH: QVHLQQPGAELVKPGASVKLSCKASGYNFNIYWINWVKQRPGQGLEWIGNIYPSSISTNYNEKFKTKATLTVDKSSNTVYMQFSSLTSEDSAVYYCARSEGTYYGGRYEGDWFGYWGQGTLVTVSA
VL: DIQMTQTTSSLSASLGDRVTISCRASQDIRNYLNWYQQKPDGTVKLLIYFTSTLHSGVPSRFSGSGSGTDYSLTISNLEQEDIATYFCQQGNTLPWTFGGGTKLEIK

B2: human-murine chimeric antibody mab14c (antibody, human IgG4 S228P, kappa, V domains shown)
VH: B1 VH
VL: DIQMTQTTSSLSASLGDRVTISCRASQDIRNYLNWYQQKPDGTVKLLIYFTSTLHSGVPSRFSGSGSGTDYSLTISNLEQEDIATYFCQQGNTLPWTFGGGTKLEIKR
binding [2]: no binding (tested: EC50 ≥ 50 nM or no signal value detected)
binding [3]: no binding (tested: EC50 ≥ 50 nM or no signal value detected)
